Some of the results follow. These are further read-outs of the screen, such as a control signal, another cell line or another target. No call is given for them. Most of these compounds were active or inconclusive in the main read-out, so they are no random draw. Words in brackets tell the shape of the fitted curve; partial curves, single points and poor fits give uncertain potencies.

The nature of this experiment: qHTS Assay for Identifying the Cell-Membrane Permeable IMPase Inhibitors. The note with it: CHO-M1 cells, IP1 accumulation, HTRF TR-FRET ratio; measured here: donor channel 620 nm AC50. An excerpt:
NCGC IMPase Assay Overview
Lithium has been widely used for the treatment of bipolar disorder. But lithium has a narrow therapeutic index and it can cause side effects such as thirst, weight gain, tremor, polyuria and memory problems. Although the mechanism for lithium action in treatment of bipolar disorder is still not fully understood, inhibition of inositol monophosphatase (IMPase) and the subsequent depletion of the inositol pool in living cells have been implicated as the primary therapeutic benefit of lithium therapy. Therefore, a selective IMPase inhibitor with reduced side effects might be a good drug candidate to replace lithium for the treatment of bipolar disorder. Several IMPase inhibitors have been discovered previously. However, they are not suitable for therapeutic use because of their poor cell membrane penetrability or oral bioavailability; the development of new cell-permeable IMPase inhibitors is needed.
IMPase catalyzes the hydrolysis of inositol-1-phosphate (IP1) to release free inositol. Binding of an agonist to a Gq coupled GPCR results in the activation of PLC, which hydrolyzes the PIP2 to form inositol-1,4,5-trisphosphate (IP3) and diacyl glycerol (DAG). While DAG activates protein kinase C (PKC), IP3 triggers the elevation of intracellular free Ca2+. The IP3 is very rapidly inactivated by hydrolysis to IP2, IP1 and then inositol by a series of enzymes including IMPase. Free inositols are used for synthesis of PI and thus start another inositol cycle.
To identify new cell-permeable IMPase inhibitors, we developed a cell-based IMPase assay in which the cytosolic IP1 is measured by a time-resolved fluorescence resonance energy transfer (TR-FRET) assay. In this assay, an IP1 specific antibody is used to detect the labeled IP1 tracer. When the cell lysate contains the elevated IP1 due to the inhibition of IMPase, the TR-FRET between the labeled antibody and IP1 tracer is disrupted resulting in a reduction in the total signal. Since the TR-FRET is used, this cell-based assay is a homogenous assay without cell wash and medium change that is suitable for assay miniaturization and HTS.
NCGC IMPase Assay Protocol Summary
A Chinese hamster ovary (CHO) cell line stably expressing the M1 receptor (CHO-M1) was obtained from ATCC and maintained in F-12 Kaighn's media (Invitrogen, Carlsbad, CA, 21127) supplemented with 10 % FBS, 100 units/ml penicillin, 100 ug/ml streptomycin and 250 ug/ml geneticin at 37C, 5% CO2 in a humidified atmosphere. Before the assay, aliquots of cells were frozen and stored at -135C. The assay was performed in 1536-well format. Data are reported for both the ratio of the two emission wavelengths, and also for the component 'donor' channel, Em2=620. […] AC50 values were determined from concentration-response data modeled with the standard Hill equation.
IMPase 1536-well assay protocol:
(1) Plate 4 ul/well (2000 cells) of cell suspension from frozen CHO-M1 Cells in white, tissue culture treated 1536-well plates that are cultured at 37C, 5 % CO2 for 16 to 30 hours.
(2) Add 23 nl/well of compound in DMSO solution. The final titration for each compound was between 0.6 nM and 46 uM.
(3) Add 1 ul of carbachol (50 uM in stimulation buffer containing10mM HEPES, 1mM CaCl2, 0.5 mM MgCl2, 4.2 mM KCl, 146 mM NaCl, 5.5 mM glucose, 50mM LiCl, pH 7.4.
(4) Incubation at 37C, 5 % CO2 for 30 min.
(5) Add 1 ul/well of d2-conjugated IP1 (d2-IP1) and 1 ul/well of Eu+ cryptate conjugated anti-IP1 antibody (Eu+-Ab) prepared in the cell lysis buffer, both from the IP-One kit (Cisbio, MA).
(6) Incubate at room temperature for 10 minutes.
(7) Detect the assay plate (Ex = 320, Em1 =665 and Em2 620) in a ViewLux plate reader.
inositol monophosphatase, IMPase, IMPase inhibitor, lithium, bipolar disorder, IP-One, HTRF, qHTS, NIH roadmap, NCGC
Note: In the gene ID and protein GI references for this assay, rat IMPase is referenced instead of hampster as hamster accession numbers were not available.
For orientation: AC50 means the concentration at which the activity in the assay is half-maximal. For the compound `Cc1cc(Br)c2nc3c(c(C(=O)O)c2c1)CCCCC3`, the AC50 was 12600 nM [rising, partial curve]. `COc1ccc(-c2cc(C(F)(F)F)nc(SCC(=O)N3CCCCC3C)n2)cc1OC` (stereo unspecified): the AC50 was 5620 nM [falling, single point]. `CCOC(=O)c1c(N)sc2c(OC)c(Br)ccc12`: the AC50 is 7.94 nM [falling, full curve, poor fit].

For `CCN(CC)Cc1c(NC(=O)c2ccc(OC)cc2)sc2c1CCCC2`, the half-maximal activity concentration (AC50) was 158 nM [falling, full curve, poor fit]. On to `COc1ccccc1C/C(N)=N/OC(=O)COc1ccc2ccccc2c1`, for which the half-maximal activity concentration (AC50) was 3980 nM [rising, full curve]. With `Cc1ccc(-c2cc(C#N)c(=O)n(Cc3c(Cl)cccc3Cl)c2)cc1`, the concentration at half-maximal activity (AC50) was 20 nM [rising, full curve, poor fit]. Then `Cc1cccc2cc(C#N)c(NCCNC(=O)NC3CCCCC3)nc12`, with 31600 nM [rising, single point]; and `COc1ccc(C2CC(C(F)(F)F)n3ncc(C(=O)NCC4CCCO4)c3N2)cc1OC` (stereo unspecified), with 501 nM [rising, full curve, poor fit]; and `O=C(Nc1nnc(-c2ccc3c(c2)CCCC3)o1)c1ccccc1`, with 39800 nM [falling, partial curve, poor fit]. Take `CCc1cc(-c2[nH]ncc2-c2ccc3c(c2)OCO3)c(O)cc1O`: the half-maximal activity concentration (AC50) is 6310 nM [falling, single point]. For `COc1ccc(NC(=O)CN2CCN(CC(=O)Nc3ccccc3F)CC2)cc1OC` the value was 7.94 nM [falling, full curve, poor fit]; for `CCOc1ccc(C(=O)NC2CCN(S(=O)(=O)CC)CC2)cc1`, 3160 nM [falling, partial curve, poor fit]; for `Brc1ccc2c(c1)C(c1cccs1)=NNC(c1cccnc1)=N2`, 31600 nM [rising, single point]. For `CC(C)CCN1C(=O)c2ccc(-c3nc4ccccc4c(=O)o3)cc2C1=O`, the half-maximal activity concentration (AC50) was 6310 nM [rising, single point].

For `CCOC(=O)c1cccc(NC(=O)CSc2nc3cc4ccccc4cc3[nH]2)c1`, the AC50 was 3160 nM [falling, single point]. As to `Cc1ccc(-c2noc(CCC(=O)N(C)c3ccccc3C)n2)cc1`, the half-maximal activity concentration (AC50) is 5010 nM [rising, partial curve, poor fit]. On to `Cc1cc2c(c(=O)n1CCCn1ccnc1)C(c1ccco1)C(C#N)=C(N)O2` (stereo unspecified), for which the concentration at half-maximal activity (AC50) was 3160 nM [rising, single point]. For the compound `Cc1nn(Cc2cccc(C(=O)Nc3ccn(Cc4ccccc4)n3)c2)c(C)c1[N+](=O)[O-]`, the AC50 is 2000 nM [falling, partial curve]. For `Clc1ccc(-n2ncc3c(N4CCCCCC4)ncnc32)cc1` the value was 112 nM [falling, full curve, poor fit].

Regarding `O=C(O)C1=CC(=C(c2ccc(O)c(C(=O)O)c2)c2ccc(O)c(C(=O)O)c2)C=CC1=O`, the half-maximal activity concentration (AC50) was 12600 nM [falling, single point]. Then `CC(=O)Nc1cc(NC(C)=O)cc(C(=O)NC(C)(C)C)c1`, with 63.1 nM [rising, full curve, poor fit].

Take `Fc1ccc(N2CCN(C(c3cccs3)c3nnnn3CCc3ccccc3)CC2)cc1` (stereo unspecified): the AC50 was 794 nM [falling, single point]. As to `COc1ccc(C2CC(=O)c3cnc(NC(=O)c4ccccc4OC)nc3C2)c(OC)c1` (stereo unspecified), the half-maximal activity concentration (AC50) is 31600 nM [falling, single point]. As for `COc1ccc(CN(C)CCc2ccccn2)c(OC)c1OC`, the half-maximal activity concentration (AC50) is 398 nM [rising, partial curve, poor fit]. Then `CC(Cc1ccccc1)N/C=C1/CC(=O)NC1=O` (stereo unspecified), with 31600 nM [falling, single point]; and `O=C(CSc1nc(-c2ccccc2)nc2c1CCCC2)c1ccc(Cl)cc1`, with 224 nM [falling, full curve, poor fit].

As for `Cc1cccc(NC(=O)CSc2nnc(-c3ccccc3)n2N)c1C`, the concentration at half-maximal activity (AC50) was 63.1 nM [rising, full curve, poor fit]. For `CC(C)(C)c1cn(-c2ccc(F)cc2)c(=S)[nH]1` the value was 6310 nM [falling, full curve]; for `COC(=O)c1ccc(Cn2nnc3sc4c(c3c2=O)CCCC4)cc1`, 35500 nM [falling, single point].

With `COCCn1c(SCC(=O)NCc2ccco2)nc2cccnc21`, the half-maximal activity concentration (AC50) is 5620 nM [rising, single point]. In the case of `CC1=NN(C(=O)Cc2ccc(C)cc2)C(O)(c2cccnc2)C1` (stereo unspecified), the AC50 was 3980 nM [falling, partial curve].

Turning to `COc1ccccc1-n1c(C)nnc1SCC(=O)Nc1cc(C)cc(C)c1`, the AC50 is 3980 nM [falling, single point]. Consider `COc1ccc(C(=O)/C=C/Nc2ccc(C)cn2)cc1OC`, for which the half-maximal activity concentration (AC50) was 100 nM [falling, full curve, poor fit]. Consider `CC(Cl)C(=O)c1c(N)n(C)c(=O)n(C)c1=O` (stereo unspecified), for which the AC50 is 126 nM [falling, full curve, poor fit].

As to `O=C(CN1CCOc2ccccc21)NCc1cccs1`, the half-maximal activity concentration (AC50) was 5.01 nM [rising, full curve, poor fit]. For the compound `O=C(CSCc1ccc(F)cc1)Nc1nc2c(s1)CCCC2`, the AC50 was 12600 nM [falling, single point].

Turning to `CC1=Nc2cc(C(=O)NC(C)C)ccc2Sc2ccc(C)cc21`, the concentration at half-maximal activity (AC50) is 63.1 nM [falling, partial curve].

Turning to `Cc1ccc(-n2c(SCC(N)=O)nc3c(c2=O)C2(CCCC2)Cc2ccccc2-3)cc1`, the half-maximal activity concentration (AC50) is 35500 nM [rising, single point]. Regarding `Cc1cc2c(cc1C)NC(=O)CC(C(F)(F)C(F)(F)C(F)(F)F)=N2`, the half-maximal activity concentration (AC50) is 2000 nM [falling, partial curve, poor fit].

On to `CCN(CC)CCCn1c(=S)[nH]c2cc(C(=O)OC)ccc2c1=O`, for which the AC50 was 5.01 nM [falling, full curve, poor fit]. In the case of `COC(C(=O)Nc1ccc(F)cc1)c1ccccc1` (stereo unspecified), the concentration at half-maximal activity (AC50) is 31600 nM [falling, single point].

For `COCCn1c(=O)[nH]c2cc(C(=O)NCCc3ccc(OC)c(OC)c3)ccc2c1=O`, the AC50 is 12.6 nM [rising, full curve, poor fit]. As to `O=c1oc2ccccc2cc1-c1cn2cc(Cc3ccccc3F)sc2n1`, the concentration at half-maximal activity (AC50) was 2240 nM [falling, partial curve]. Then `CN(C(=O)c1cccnc1)c1nnc(-c2cccnc2)s1`, with 2510 nM [falling, full curve]; and `COc1ccc(C2Nc3ccccc3C(=O)N2c2ccccc2)cc1COc1ccccn1` (stereo unspecified), with 10000 nM [falling, partial curve]; and `COc1ccc(-c2c(C#N)c(N)nc3sc(C(=O)c4ccccc4)c(N)c23)cc1`, with 4.47 nM [falling, full curve, poor fit]. For the compound `COCCn1c(N)c(C(=O)NCc2cccs2)c2nc3ccccc3nc21`, the half-maximal activity concentration (AC50) was 10 nM [rising, full curve, poor fit]. For `O=C(CSc1ncnc2c1oc1ccccc12)Nc1ccccc1C(F)(F)F` the value was 31600 nM [rising, partial curve]. Turning to `Cc1cc(NCCCN2CCOCC2)n2nc(C)c(-c3ccc(F)cc3)c2n1`, the AC50 is 39.8 nM [falling, full curve]. Take `COc1cccc(CNC(=O)Cn2cc3c(n2)CCCC3)c1`: the AC50 is 4.47 nM [falling, full curve, poor fit]. For `CN(C)S(=O)(=O)c1ccc(NC(=O)/C=C/c2ccccc2Cl)cc1` the value was 5620 nM [rising, single point]; for `CCC(C)C(=O)Nc1ncc2c(n1)CC(c1cccs1)CC2=O` (stereo unspecified), 25100 nM [falling, single point]; for `CCCOc1ccc(Cn2c(=O)sc3ccccc32)cc1`, 708 nM [falling, full curve]. Then `O=C(O)Cn1c(SCCOc2ccccc2F)nc2ccccc21`, with 5010 nM [rising, single point]; and `CCOc1ccccc1NC(=O)CSc1nnc(-c2ccccn2)n1Cc1ccco1`, with 316 nM [falling, full curve, poor fit]. For `C/C(=N\Nc1nc(C)cc(=O)[nH]1)C1CC1` the value was 15.8 nM [falling, full curve, poor fit]; for `COC(=O)c1c(C)nc2ccccc2c1-c1ccccc1`, 3160 nM [falling, partial curve]; for `Cc1ccc(C)c2[nH]c(=O)c(CN(CC3CCCO3)S(=O)(=O)c3ccc4c(c3)OCCO4)cc12` (stereo unspecified), 12600 nM [falling, partial curve]. As for `Cc1ccc2c(c1)N(CC(=O)O)C(=O)CO2`, the AC50 is 31.6 nM [rising, partial curve, poor fit]. In the case of `COc1ccc(-n2c(-c3cccc(OC)c3)nc(=S)c3c2CCCC3)cc1`, the half-maximal activity concentration (AC50) is 12600 nM [rising, partial curve]. Then `CN(/N=C/c1ccncc1)c1cnn(-c2ccc(F)c(Cl)c2)c(=O)c1Cl`, with 20 nM [falling, full curve, poor fit]; and `Cc1ccc(NC(=O)/C=C/c2cccc(C(F)(F)F)c2)cc1`, with 708 nM [falling, single point]; and `CC1CCc2sc3nc(N4CCN(CCO)CC4)n4ncnc4c3c2C1` (stereo unspecified), with 501 nM [falling, full curve]. For `Cc1ccc(Cc2c(C)nc3nc(SCC(=O)NCCN4CCOCC4)nn3c2C)cc1` the value was 631 nM [falling, single point]; for `Cc1ccc(S(=O)(=O)N(c2nc(N(C)C)nc(N(C)C)n2)n2cnnc2)cc1`, 35500 nM [falling, single point]. With `CN(C)CCCN(C(=O)c1sc2ccccc2c1Cl)c1nc2c(F)cccc2s1`, the AC50 was 15800 nM [rising, partial curve].

Source of the values: PubChem BioAssay AID901 (National Center for Advancing Translational Sciences (NCATS), 2007).
